Test results published in patent US10226048B2 (priority 2014, dated 2019).

Legend:
[1] = Oxidization test of L-ascorbic acid
[2] = Oxidization ability against sodium thiosulfate

CC(=O)OO [PAA, Peracetic Acid]
LAA oxidized ([1]; acidic solution (pH 2.3)): 50% | time to complete oxidation of LAA ([1]; basic solution (pH 9.4)): 5 min | time to complete oxidation of the STS intermediate ([2]; acidic solution (pH 2)): about 5 minutes | time to complete oxidation of STS ([2]; basic solution (pH 9.3)): 30 s
